PubChem BioAssay AID504804, Drosophila RNAi Screening Center, 2011
The screen tested about 19,000 reagents; this is an unselected part of those that have a named target and a result. Of all reagents, 47 (0.25%) were called active. 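Signals are raw, not normalised; exact z-scores behind calls not deposited; actives needed confirmation, so some wells reaching 2 SD are inactive.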 Reagents against one gene are numbered here. A plus sign joins genes that one reagent is predicted to hit. No sequences are given here.

Test: 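dsRNAs that improve Kc cell survival under doxorubicin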 (primary screen)
Cell system: Drosophila Kc cells
Knock-down reagent: long dsRNA against Drosophila genes, 0.5 µg dsRNA per well
Duration: 96 h (48 h knock-down, then 48 h drug)
Conditions: doxorubicin 5 µg/ml for 48 h, added 48 h after dsRNA
Detection: 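Viability measured as cellular ATP by luminescence after 48 h knock-down then 48 h doxorubicin at 5 µg/ml; unnormalised plate counts for each replicate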
Scale: raw ATP luminescence: higher = more viable cells, protection from doxorubicin
Call rule: 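z-score of 2 or more over plate mean in both duplicates, retained only when retests and separate dsRNAs confirm the protection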

| gene | dsRNA no. | raw ATP luminescence, replicate 1 | raw ATP luminescence, replicate 2 | activity call |
| --- | --- | --- | --- | --- |
| CG11470 | 1 | 54970 | 52120 | inactive |
| CG12360 (retired record) | 1 | 1.18e5 | 62790 | inactive |
| CG17343 | 1 | 71607 | 58993 | inactive |
| Sid | 1 | 72280 | 46800 | inactive |
| CG5906 | 1 | 90530 | 73913 | inactive |
| RpL35A | 1 | 46060 | 43517 | inactive |
| CG9121 | 1 | 29110 | 35997 | inactive |
| CG7054 | 1 | 38623 | 39127 | inactive |
| CG15263 | 1 | 75450 | 74487 | inactive |
| REG | 1 | 3.30e5 | 2.70e5 | inactive |
| Hsp70Bb + Hsp70Ba + Hsp70Bc + 1 more | 1 | 3.01e5 | 2.92e5 | inactive |
| Hsp70Bb + Hsp70Ba + Hsp70Bc + 1 more | 2 | 2.74e5 | 2.87e5 | inactive |
| Dr | 1 | 1.80e5 | 1.58e5 | inactive |
| CG10031 | 1 | 28330 | 23510 | inactive |
| Hira | 1 | 32760 | 49400 | inactive |
| CG4669 | 1 | 30903 | 30613 | inactive |
| lap | 1 | 52863 | 25120 | inactive |
| Or43a | 1 | 56317 | 98220 | inactive |
| Srrm234 | 1 | 1.33e5 | 1.59e5 | inactive |
| Srrm234 | 2 | 64863 | 67517 | inactive |
| uri | 1 | 61053 | 71750 | inactive |
| COX7B | 1 | 35200 | 22840 | inactive |
| VhaM9.7-b | 1 | 67490 | 64977 | inactive |
| Mov10 | 1 | 81267 | 88750 | inactive |
| CG14610 + asRNA:CR42738 | 1 | 58890 | 58360 | inactive |
| CG8243 | 1 | 55900 | 86023 | inactive |
| CG10584 | 1 | 76763 | 62803 | inactive |
| PolZ1 | 1 | 57887 | 54190 | inactive |
| TyrRII | 1 | 31280 | 28950 | inactive |
| CG3253 | 1 | 67723 | 54733 | inactive |
| M7BP | 1 | 93580 | 77593 | inactive |
| PLCXD | 1 | 87300 | 68147 | inactive |
| Uggt | 1 | 21257 | 27067 | inactive |
| CG14835 | 1 | 74443 | 88270 | inactive |

2 entries from above in another layout.
Hira — raw ATP luminescence, replicate 1 = 32760; raw ATP luminescence, replicate 2 = 49400; activity call = inactive
CG4669 — raw ATP luminescence, replicate 1 = 30903; raw ATP luminescence, replicate 2 = 30613; activity call = inactive
